# The supplement of paper PMC8728848
# Some of the results follow.
# Tests used:
# Assay in all cases: glycan array binding signal (z-score within array); higher = stronger binding
# Details in all cases: glycan notation: IUPAC condensed, linker removed
# [1] = biological target: Gal(b1-3)[Neu5Ac(a2-6)]GlcNAc(a1-4)Gal(b1-4)Glc
# Outline: (§1)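 The binding signal is a Z-score computed within each array. Data were drawn from 3228 arrays in the Consortium for Functional Glycomics database, restricted to those with a known protein sequence. Scores were averaged over arrays of the same protein sequence at different concentrations or buffers, and over linkers, and negative values can be taken as non-binding.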
# [2] = biological target: Gal(b1-3)[Neu5Ac(b2-6)]GlcNAc
# Outline: as §1
# [3] = biological target: Gal(b1-4)GalNAc(a1-3)[Fuc(a1-2)]Gal(b1-4)GlcNAc
# Outline: as §1
# [4] = biological target: Gal(b1-4)GalNAc(b1-3)[Fuc(a1-2)]Gal(b1-4)GlcNAc
# Outline: as §1
# [5] = biological target: Gal(b1-4)Glc
# Outline: as §1
# [6] = biological target: Gal(b1-4)Glc6S
# Outline: as §1
# [7] = biological target: Gal(b1-4)GlcNAc
# Outline: as §1
# [8] = biological target: Gal(b1-4)GlcNAc(b1-2)Man(a1-3)[Gal(b1-4)GlcNAc(b1-2)Man(a1-6)]Man(b1-4)GlcNAc(b1-4)GlcNAc
# Outline: as §1
# [9] = biological target: Gal(b1-4)GlcNAc(b1-3)Gal(b1-3)GlcNAc
# Outline: as §1
# [10] = biological target: Gal(b1-4)GlcNAc(b1-3)Gal(b1-4)Glc
# Outline: as §1
# [11] = biological target: Gal(b1-4)GlcNAc(b1-3)Gal(b1-4)GlcNAc
# Outline: as §1
# [12] = biological target: Gal(b1-4)GlcNAc(b1-3)Gal(b1-4)GlcNAc(b1-3)Gal(b1-4)GlcNAc
# Outline: as §1
# [13] = biological target: Gal(b1-4)GlcNAc(b1-3)Gal(b1-4)[Fuc(a1-3)]GlcNAc(b1-3)Gal(b1-4)[Fuc(a1-3)]GlcNAc
# Outline: as §1
# [14] = biological target: Gal(b1-4)GlcNAc(b1-3)GalNAc
# Outline: as §1
# [15] = biological target: Gal(b1-4)GlcNAc(b1-3)[Gal(b1-4)GlcNAc(b1-6)]GalNAc
# Outline: as §1
# [16] = biological target: Gal(b1-4)GlcNAc(b1-6)GalNAc
# Outline: as §1
# [17] = biological target: Gal(b1-4)GlcNAc(b1-6)[Gal(b1-3)]GalNAc
# Outline: as §1
# [18] = biological target: Gal(b1-4)GlcNAc(b1-6)[Gal(b1-3)]GlcNAc
# Outline: as §1
# [19] = biological target: Gal3S(b1-3)GalNAc
# Outline: as §1
# [20] = biological target: Gal3S(b1-3)GlcNAc
# Outline: as §1
# [21] = biological target: Gal3S(b1-3)[Fuc(a1-4)]GlcNAc
# Outline: as §1
# [22] = biological target: Gal3S(b1-4)Glc
# Outline: as §1
# [23] = biological target: Gal3S(b1-4)Glc6S
# Outline: as §1
# [24] = biological target: Gal3S(b1-4)GlcNAc
# Outline: as §1
# [25] = biological target: Gal3S(b1-4)GlcNAc6S
# Outline: as §1
# [26] = biological target: Gal3S6S(b1-4)GlcNAc
# Outline: as §1
# [27] = biological target: Gal3S6S(b1-4)GlcNAc6S
# Outline: as §1
# [28] = biological target: Gal4S(b1-4)GlcNAc
# Outline: as §1
# [29] = biological target: Gal4S6S(b1-4)GlcNAc
# Outline: as §1
# [30] = biological target: Gal6S(b1-4)Glc
# Outline: as §1
# [31] = biological target: Gal6S(b1-4)Glc6S
# Outline: as §1
# [32] = biological target: Gal6S(b1-4)GlcNAc
# Outline: as §1
# [33] = biological target: GalNAc(a1-3)Gal
# Outline: as §1
# [34] = biological target: GalNAc(a1-3)GalNAc
# Outline: as §1
# [35] = biological target: GalNAc(b1-3)Gal(a1-4)Gal(b1-4)GlcNAc
# Outline: as §1
# [36] = biological target: GalNAc(b1-4)GlcNAc
# Outline: as §1
# [37] = biological target: Glc(a1-4)Glc
# Outline: as §1
# [38] = biological target: Glc(a1-6)Glc(a1-6)Glc
# Outline: as §1
# [39] = biological target: Glc(b1-4)Glc
# Outline: as §1
# [40] = biological target: Glc(b1-6)Glc
# Outline: as §1
# [41] = biological target: GlcA(b1-3)Gal
# Outline: as §1
# [42] = biological target: GlcA(b1-6)Gal
# Outline: as §1
# [43] = biological target: GlcNAc(a1-3)Gal(b1-4)GlcNAc
# Outline: as §1
# [44] = biological target: GlcNAc(a1-6)Gal(b1-4)GlcNAc
# Outline: as §1
# [45] = biological target: GlcNAc(b1-2)Gal(b1-3)GlcNAc
# Outline: as §1
binder,measurement,setting,value
"Tim-4 (Mus musculus), Q6U7R4 (protein) MSKGLLLLWLVTELWWLYLTPAASEDTIIGFLGQPVTLPCHYLSWSQSRNSMCWGKGSCPNSKCNAELLRTDGTRIISRKSTKYTLLGKVQFGEVSLTISNTNRGDSGVYCCRIEVPGWFNDVKKNVRLELRRATTTKKPTTTTRPTTTPYVTTTTPELLPTTVMTTSVLPTTTPPQTLATTAFSTAVTTCPSTTPGSFSQETTKGSAFTTESETLPASNHSQRSMMTISTDIAVLRPTGSNPGILPSTSQLTTQKTTLTTSESLQKTTKSHQINSRQTILIIACCVGFVLMVLLFLAFLLRGKVTGANCLQRHKRPDNTEDSDSVLNDMSHGRDDEDGIFTL",glycan array binding signal (z-score),[1],-0.258
same,glycan array binding signal (z-score),[2],0.234
same,glycan array binding signal (z-score),[3],-0.026
same,glycan array binding signal (z-score),[4],-0.661
same,glycan array binding signal (z-score),[5],-0.168
same,glycan array binding signal (z-score),[6],-0.179
same,glycan array binding signal (z-score),[7],-0.08
same,glycan array binding signal (z-score),[8],-0.033
same,glycan array binding signal (z-score),[9],-0.496
same,glycan array binding signal (z-score),[10],-0.207
same,glycan array binding signal (z-score),[11],-0.621
same,glycan array binding signal (z-score),[12],-0.396
same,glycan array binding signal (z-score),[13],-0.165
same,glycan array binding signal (z-score),[14],-0.078
same,glycan array binding signal (z-score),[15],-0.345
same,glycan array binding signal (z-score),[16],-0.533
same,glycan array binding signal (z-score),[17],0.469
same,glycan array binding signal (z-score),[18],0.12
same,glycan array binding signal (z-score),[19],2.34
same,glycan array binding signal (z-score),[20],-0.157
same,glycan array binding signal (z-score),[21],-0.171
same,glycan array binding signal (z-score),[22],1.05
same,glycan array binding signal (z-score),[23],1.82
same,glycan array binding signal (z-score),[24],0.069
same,glycan array binding signal (z-score),[25],0.378
same,glycan array binding signal (z-score),[26],1.9
same,glycan array binding signal (z-score),[27],0.91
same,glycan array binding signal (z-score),[28],-0.08
same,glycan array binding signal (z-score),[29],0.4
same,glycan array binding signal (z-score),[30],0.141
same,glycan array binding signal (z-score),[31],0.552
same,glycan array binding signal (z-score),[32],-0.607
same,glycan array binding signal (z-score),[33],-0.211
same,glycan array binding signal (z-score),[34],-0.157
same,glycan array binding signal (z-score),[35],-0.334
same,glycan array binding signal (z-score),[36],-0.684
same,glycan array binding signal (z-score),[37],0.547
same,glycan array binding signal (z-score),[38],-0.167
same,glycan array binding signal (z-score),[39],-0.259
same,glycan array binding signal (z-score),[40],0.159
same,glycan array binding signal (z-score),[41],0.947
same,glycan array binding signal (z-score),[42],0.986
same,glycan array binding signal (z-score),[43],-0.514
same,glycan array binding signal (z-score),[44],-0.527
same,glycan array binding signal (z-score),[45],-0.252

# Shown with tabs: part of the list above.
binder	measurement	setting	value
Tim-4 (Mus musculus), Q6U7R4 (protein) MSKGLLLLWLVTELWWLYLTPAASEDTIIGFLGQPVTLPCHYLSWSQSRNSMCWGKGSCPNSKCNAELLRTDGTRIISRKSTKYTLLGKVQFGEVSLTISNTNRGDSGVYCCRIEVPGWFNDVKKNVRLELRRATTTKKPTTTTRPTTTPYVTTTTPELLPTTVMTTSVLPTTTPPQTLATTAFSTAVTTCPSTTPGSFSQETTKGSAFTTESETLPASNHSQRSMMTISTDIAVLRPTGSNPGILPSTSQLTTQKTTLTTSESLQKTTKSHQINSRQTILIIACCVGFVLMVLLFLAFLLRGKVTGANCLQRHKRPDNTEDSDSVLNDMSHGRDDEDGIFTL	glycan array binding signal (z-score)	[34]	-0.157
same	glycan array binding signal (z-score)	[35]	-0.334
same	glycan array binding signal (z-score)	[36]	-0.684
same	glycan array binding signal (z-score)	[37]	0.547
same	glycan array binding signal (z-score)	[38]	-0.167
same	glycan array binding signal (z-score)	[39]	-0.259
same	glycan array binding signal (z-score)	[40]	0.159
same	glycan array binding signal (z-score)	[41]	0.947
same	glycan array binding signal (z-score)	[42]	0.986
same	glycan array binding signal (z-score)	[43]	-0.514
